Experimental data published in the supplement of paper PMC11006884.
The entries are a selection whose mix differs from that of the whole data set.

Sequences of proteins named here, by UniProt entry; tags and fusion partners are left off. A change or cut given only in a name is not applied to a line headed by its entry.
UniProt P57772: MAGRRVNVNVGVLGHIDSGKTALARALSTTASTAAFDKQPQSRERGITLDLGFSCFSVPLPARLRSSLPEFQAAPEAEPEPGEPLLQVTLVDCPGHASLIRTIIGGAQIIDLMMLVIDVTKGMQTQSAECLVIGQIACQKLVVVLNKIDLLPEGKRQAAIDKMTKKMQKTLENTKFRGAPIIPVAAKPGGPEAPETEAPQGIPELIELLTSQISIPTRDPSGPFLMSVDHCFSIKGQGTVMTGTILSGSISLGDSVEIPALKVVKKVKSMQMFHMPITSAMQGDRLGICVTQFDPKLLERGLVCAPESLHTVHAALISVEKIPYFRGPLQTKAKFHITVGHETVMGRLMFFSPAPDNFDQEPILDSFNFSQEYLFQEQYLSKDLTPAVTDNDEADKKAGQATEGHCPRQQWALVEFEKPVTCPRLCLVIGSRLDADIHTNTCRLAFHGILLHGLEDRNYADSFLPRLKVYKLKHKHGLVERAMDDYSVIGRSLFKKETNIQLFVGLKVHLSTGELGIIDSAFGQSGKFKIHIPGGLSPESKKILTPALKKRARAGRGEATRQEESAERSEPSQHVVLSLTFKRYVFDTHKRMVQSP
UniProt P61163, whole entry, looked up: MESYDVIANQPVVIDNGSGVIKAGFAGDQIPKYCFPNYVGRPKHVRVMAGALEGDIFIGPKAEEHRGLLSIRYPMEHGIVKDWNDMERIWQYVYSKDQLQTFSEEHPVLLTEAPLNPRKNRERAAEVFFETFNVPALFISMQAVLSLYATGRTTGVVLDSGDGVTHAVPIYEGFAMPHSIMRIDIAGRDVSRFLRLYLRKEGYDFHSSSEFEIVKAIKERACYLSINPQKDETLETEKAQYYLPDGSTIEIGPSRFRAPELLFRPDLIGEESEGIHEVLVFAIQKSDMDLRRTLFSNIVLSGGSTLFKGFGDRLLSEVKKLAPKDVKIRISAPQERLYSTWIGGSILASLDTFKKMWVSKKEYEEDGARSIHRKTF
UniProt P60981: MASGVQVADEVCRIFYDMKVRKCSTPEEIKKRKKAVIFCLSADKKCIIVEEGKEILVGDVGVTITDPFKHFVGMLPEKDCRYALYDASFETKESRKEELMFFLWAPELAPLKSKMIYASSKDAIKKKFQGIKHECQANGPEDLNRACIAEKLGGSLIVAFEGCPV
UniProt P53384: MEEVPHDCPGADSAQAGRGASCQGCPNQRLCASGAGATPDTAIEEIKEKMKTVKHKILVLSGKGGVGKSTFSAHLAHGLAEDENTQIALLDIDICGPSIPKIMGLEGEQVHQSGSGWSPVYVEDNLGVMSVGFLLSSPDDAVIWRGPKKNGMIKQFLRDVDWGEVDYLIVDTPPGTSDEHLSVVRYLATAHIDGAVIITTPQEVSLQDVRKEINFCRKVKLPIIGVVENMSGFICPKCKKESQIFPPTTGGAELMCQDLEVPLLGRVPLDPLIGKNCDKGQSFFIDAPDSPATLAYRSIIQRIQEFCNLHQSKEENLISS
UniProt P60174, whole entry, looked up: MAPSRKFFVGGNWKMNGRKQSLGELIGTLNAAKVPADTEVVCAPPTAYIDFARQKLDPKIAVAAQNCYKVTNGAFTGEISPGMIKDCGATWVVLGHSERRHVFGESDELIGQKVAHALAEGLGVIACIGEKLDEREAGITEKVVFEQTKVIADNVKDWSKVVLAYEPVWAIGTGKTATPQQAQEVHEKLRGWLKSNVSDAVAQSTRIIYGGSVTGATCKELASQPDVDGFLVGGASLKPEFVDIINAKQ
UniProt P54132: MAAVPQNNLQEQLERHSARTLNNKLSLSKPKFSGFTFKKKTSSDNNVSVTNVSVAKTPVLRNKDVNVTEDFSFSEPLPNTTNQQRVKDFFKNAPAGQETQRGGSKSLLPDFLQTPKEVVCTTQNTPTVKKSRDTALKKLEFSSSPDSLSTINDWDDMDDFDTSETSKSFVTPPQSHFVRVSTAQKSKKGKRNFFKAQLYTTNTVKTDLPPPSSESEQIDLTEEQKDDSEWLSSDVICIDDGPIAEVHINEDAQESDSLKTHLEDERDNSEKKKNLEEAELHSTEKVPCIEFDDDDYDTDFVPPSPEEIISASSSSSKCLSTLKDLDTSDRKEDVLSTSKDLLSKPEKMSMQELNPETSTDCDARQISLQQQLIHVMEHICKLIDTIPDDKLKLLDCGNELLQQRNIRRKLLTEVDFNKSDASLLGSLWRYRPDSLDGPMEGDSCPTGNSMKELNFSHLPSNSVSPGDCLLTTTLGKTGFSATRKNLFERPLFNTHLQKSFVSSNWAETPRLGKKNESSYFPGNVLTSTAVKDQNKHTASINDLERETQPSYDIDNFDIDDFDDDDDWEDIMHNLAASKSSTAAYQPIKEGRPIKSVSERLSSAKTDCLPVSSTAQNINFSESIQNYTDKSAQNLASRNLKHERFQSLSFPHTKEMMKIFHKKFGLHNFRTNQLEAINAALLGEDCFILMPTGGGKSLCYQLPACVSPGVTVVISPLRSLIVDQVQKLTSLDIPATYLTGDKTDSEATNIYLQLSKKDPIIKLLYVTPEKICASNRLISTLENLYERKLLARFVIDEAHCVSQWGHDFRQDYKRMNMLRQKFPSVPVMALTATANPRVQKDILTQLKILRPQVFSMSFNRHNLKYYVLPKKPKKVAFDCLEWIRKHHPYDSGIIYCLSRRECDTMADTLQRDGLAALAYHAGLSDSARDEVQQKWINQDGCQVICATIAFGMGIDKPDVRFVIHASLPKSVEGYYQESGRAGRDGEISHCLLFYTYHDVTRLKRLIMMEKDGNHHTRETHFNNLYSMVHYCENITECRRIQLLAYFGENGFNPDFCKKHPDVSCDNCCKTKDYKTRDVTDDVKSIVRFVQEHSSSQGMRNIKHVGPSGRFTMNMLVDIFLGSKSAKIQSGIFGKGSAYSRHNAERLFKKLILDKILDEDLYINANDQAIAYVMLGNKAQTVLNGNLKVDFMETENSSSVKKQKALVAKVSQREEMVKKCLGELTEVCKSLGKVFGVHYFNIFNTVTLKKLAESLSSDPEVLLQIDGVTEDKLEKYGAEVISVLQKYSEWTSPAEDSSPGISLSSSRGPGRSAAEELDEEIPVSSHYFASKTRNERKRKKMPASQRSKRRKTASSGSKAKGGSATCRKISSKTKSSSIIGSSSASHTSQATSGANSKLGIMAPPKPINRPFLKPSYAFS
UniProt P55795: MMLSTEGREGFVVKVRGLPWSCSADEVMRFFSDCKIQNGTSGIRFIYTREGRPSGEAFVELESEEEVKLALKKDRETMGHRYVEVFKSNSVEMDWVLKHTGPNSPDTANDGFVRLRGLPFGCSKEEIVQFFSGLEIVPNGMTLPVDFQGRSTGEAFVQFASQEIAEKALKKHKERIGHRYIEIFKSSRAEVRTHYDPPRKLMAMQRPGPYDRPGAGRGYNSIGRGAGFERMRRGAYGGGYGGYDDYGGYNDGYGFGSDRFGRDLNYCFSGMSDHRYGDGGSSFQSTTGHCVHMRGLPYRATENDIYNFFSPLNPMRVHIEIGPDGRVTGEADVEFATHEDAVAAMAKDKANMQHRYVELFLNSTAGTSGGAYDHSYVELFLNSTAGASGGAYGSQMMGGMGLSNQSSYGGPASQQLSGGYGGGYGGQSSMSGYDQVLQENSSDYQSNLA
UniProt P61970, whole entry: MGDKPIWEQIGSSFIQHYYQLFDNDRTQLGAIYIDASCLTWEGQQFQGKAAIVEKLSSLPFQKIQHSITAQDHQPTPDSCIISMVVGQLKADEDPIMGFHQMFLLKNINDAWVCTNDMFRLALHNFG
UniProt P51991: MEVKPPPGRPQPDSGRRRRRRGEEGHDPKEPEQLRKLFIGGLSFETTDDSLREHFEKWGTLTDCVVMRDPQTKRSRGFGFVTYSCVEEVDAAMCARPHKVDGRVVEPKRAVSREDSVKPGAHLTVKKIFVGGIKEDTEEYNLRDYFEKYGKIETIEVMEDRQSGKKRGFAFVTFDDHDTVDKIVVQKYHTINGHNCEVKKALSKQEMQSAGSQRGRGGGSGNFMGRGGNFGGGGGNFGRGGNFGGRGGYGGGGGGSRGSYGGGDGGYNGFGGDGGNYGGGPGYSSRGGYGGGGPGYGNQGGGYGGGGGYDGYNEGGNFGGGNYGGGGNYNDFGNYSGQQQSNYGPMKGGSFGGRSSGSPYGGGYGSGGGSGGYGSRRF
UniProt P52306: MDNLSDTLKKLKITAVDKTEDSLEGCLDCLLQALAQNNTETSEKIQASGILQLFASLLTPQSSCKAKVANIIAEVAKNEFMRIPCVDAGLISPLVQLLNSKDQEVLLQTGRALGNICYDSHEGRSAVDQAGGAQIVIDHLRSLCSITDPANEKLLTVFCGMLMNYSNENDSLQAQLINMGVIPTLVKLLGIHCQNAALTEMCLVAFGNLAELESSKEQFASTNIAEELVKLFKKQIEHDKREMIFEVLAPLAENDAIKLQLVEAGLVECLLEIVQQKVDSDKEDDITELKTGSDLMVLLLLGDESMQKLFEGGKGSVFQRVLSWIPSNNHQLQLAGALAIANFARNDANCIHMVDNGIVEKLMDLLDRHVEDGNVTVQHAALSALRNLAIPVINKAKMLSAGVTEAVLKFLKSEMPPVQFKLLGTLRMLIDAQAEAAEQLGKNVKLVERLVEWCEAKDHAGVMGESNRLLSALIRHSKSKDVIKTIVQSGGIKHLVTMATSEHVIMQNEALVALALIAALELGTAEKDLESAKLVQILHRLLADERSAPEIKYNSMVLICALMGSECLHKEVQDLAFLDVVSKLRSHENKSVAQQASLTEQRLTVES
UniProt P54136: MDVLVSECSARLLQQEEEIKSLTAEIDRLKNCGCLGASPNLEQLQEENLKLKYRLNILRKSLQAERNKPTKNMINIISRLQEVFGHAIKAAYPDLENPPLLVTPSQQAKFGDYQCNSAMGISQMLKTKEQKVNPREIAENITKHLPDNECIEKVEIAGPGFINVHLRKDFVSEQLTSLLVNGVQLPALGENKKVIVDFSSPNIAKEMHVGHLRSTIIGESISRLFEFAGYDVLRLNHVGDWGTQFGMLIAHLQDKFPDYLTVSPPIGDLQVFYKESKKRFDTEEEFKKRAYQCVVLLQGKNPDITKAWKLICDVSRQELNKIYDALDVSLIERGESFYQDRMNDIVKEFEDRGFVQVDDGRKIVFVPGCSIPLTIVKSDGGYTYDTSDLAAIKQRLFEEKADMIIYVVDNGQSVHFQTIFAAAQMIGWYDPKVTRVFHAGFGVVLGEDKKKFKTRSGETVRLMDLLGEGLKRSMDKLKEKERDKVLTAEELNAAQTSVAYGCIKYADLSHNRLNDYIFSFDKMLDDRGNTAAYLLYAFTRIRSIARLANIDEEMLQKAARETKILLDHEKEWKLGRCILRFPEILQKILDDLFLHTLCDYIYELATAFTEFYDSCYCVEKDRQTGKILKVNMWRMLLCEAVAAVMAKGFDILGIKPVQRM
UniProt P56134: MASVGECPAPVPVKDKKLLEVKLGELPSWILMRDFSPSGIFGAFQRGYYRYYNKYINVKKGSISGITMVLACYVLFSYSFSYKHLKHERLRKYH
UniProt P57678: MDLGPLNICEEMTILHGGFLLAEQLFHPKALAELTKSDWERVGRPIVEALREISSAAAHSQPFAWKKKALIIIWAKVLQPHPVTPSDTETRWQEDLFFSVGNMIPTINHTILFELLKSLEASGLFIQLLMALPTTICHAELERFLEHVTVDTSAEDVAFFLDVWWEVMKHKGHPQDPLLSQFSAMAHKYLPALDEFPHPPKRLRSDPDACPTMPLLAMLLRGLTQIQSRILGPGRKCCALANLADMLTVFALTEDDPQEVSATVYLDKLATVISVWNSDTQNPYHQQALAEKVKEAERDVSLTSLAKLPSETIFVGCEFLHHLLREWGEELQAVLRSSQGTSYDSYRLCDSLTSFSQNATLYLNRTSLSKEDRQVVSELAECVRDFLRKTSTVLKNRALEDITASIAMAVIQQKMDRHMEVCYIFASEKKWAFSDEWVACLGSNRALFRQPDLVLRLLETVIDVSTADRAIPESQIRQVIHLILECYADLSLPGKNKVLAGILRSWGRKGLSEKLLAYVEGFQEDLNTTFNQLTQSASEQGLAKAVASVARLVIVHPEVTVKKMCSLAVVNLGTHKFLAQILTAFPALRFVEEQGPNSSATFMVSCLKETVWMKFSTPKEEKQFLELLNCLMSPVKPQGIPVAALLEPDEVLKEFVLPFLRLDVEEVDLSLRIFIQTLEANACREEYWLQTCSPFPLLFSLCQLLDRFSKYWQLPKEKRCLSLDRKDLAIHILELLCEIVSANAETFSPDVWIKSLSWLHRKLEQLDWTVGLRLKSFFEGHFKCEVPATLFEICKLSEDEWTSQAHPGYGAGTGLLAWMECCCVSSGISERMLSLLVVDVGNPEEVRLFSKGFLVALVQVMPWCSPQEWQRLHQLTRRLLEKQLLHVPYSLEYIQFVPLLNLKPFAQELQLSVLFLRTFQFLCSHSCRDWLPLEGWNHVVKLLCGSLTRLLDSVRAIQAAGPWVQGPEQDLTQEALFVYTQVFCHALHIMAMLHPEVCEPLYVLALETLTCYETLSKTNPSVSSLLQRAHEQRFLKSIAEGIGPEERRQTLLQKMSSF

Compound: COC(=O)C#Cc1ccccc1 [methyl 3-phenylpropiolate]
Assay: log2 ratio of iodoacetamide-alkyne labeling of the cysteine site, DMSO over compound (competition); higher = stronger covalent engagement of the cysteine by the compound, active = 1 or more
Details: 500 µM; treatment time 1 h; system: HEK293T cell lysate
Summary of the method: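 After 1 h at ambient temperature with vehicle or electrophile (500 µM), HEK293T lysate (2 mg/mL) was labelled for 1 h with iodoacetamide alkyne and clicked to sCIP-TMT reagents. Pooled samples were trypsin-digested overnight at 37 °C, streptavidin-enriched, acid-eluted and analysed by Orbitrap Eclipse LC-MS/MS with FAIMS, then quantified in FragPipe over three replicates with duplicate channels. A cysteine's log2 competition ratio is its mean control-channel over mean compound-channel reporter intensity. Cysteines quantified in only one replicate were not included.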

log2 ratio of iodoacetamide-alkyne labeling, inactive:
EEFSEC C55 (UniProt P57772) -0.0519
UniProt P61163_C222 0.293
DSTN C147 (UniProt P60981) 0.211
NUBP1 C8 (UniProt P53384) 0.762
DRG2 C223 (UniProt P55039) 0.133
UniProt P60763_C178 -0.0321
PPP5C C77 (UniProt P53041) 0.135
TPI1 C164 (UniProt P60174) -0.0538
BLM C685 (UniProt P54132) 0.197
UniProt P62244_C72 0.177
RPS3A C139 (UniProt P61247) -0.123
HNRNPH2 C22 (UniProt P55795) -0.259
NUP98 C1312 (UniProt P52948) 0.426
UniProt P62241_C100 0.0677
UniProt P61970_C114 0.112
HNRNPA3 C196 (UniProt P51991) -0.0216
RAP1GDS1 C85 (UniProt P52306) 0.197
NAP1L1 C132 (UniProt P55209) 0.152
RARS C369 (UniProt P54136) 0.254
UniProt P56134_C7 0.00348
UniProt P59998_C21 0.337
NUBP1 C277 (UniProt P53384) 0.727
GEMIN4 C382 (UniProt P57678) 0.0965

Random excerpt: 2 entries already listed, in no set order.
log2 ratio of iodoacetamide-alkyne labeling, inactive:
UniProt P62241_C100 0.0677
DSTN C147 (UniProt P60981) 0.211
